Experimental data as given in PubChem BioAssay AID540303 (National Center for Advancing Translational Sciences (NCATS), 2011).
The campaign covered roughly 330,000 compounds. About 1,000 (0.3%) were called active. The inconclusive results got no clear call from the source; some entries with a clear call stand among them for comparison. Calls come from the whole dose curve; as a rule, active = well fitted inhibition curve with a large enough effect; inconclusive = small, poorly fitted or top-dose-only effect; inactive = no such curve, though single readings can be large or run the other way; tested in mouse RAW 264.7 cells. Where the call is inconclusive, the potency comes from a doubtful curve fit.

Test: qHTS for Inhibitors of Cell Surface uPA Generation; note: nearly all actives have a fitted effect of over 55% in size
Conditions: cell surface uPA generation assay; series mostly up to 38.3 µM; activity change, negative = inhibition: at the top concentration
Summary of the method: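 Using RAW 264.7 macrophages, the screen measures whether compounds keep cellular ATP up by preventing uPA-driven LF translocation. Treatment lasted 24 h at 37 C, with a final top concentration of 38.3 uM, and luminescence was the readout.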
% is set by controls: 0 for no effect and ±100 for the full control effect; potency is the fitted concentration of half-maximal effect.

Structure (SMILES) | activity change, negative = inhibition | Potency
OC(CN1c2ccccc2Sc2ccccc21)Cn1nnc2ccccc21 (stereo not given) | inactive: 1.99% | –
Cc1cc(C(=O)OCC(=O)NNC(=O)c2cccs2)ccc1[N+](=O)[O-] | inactive: -0.604% | –
c1ccc2[nH]c(-c3cscn3)nc2c1 | – | inconclusive: 10 µM [inhibitor, single point]
O=C(NCCc1ccc(F)cc1)c1ccc2c(=O)n3c(nc2c1)CCC3 | – | inconclusive: 0.355 µM [inhibitor, full curve]
O=C(Nc1nc2nc(-c3ccccc3)cc(-c3ccccc3)n2n1)c1ccco1 | inactive: -10.5% | –
Cc1ccc(CCNC(=O)c2coc3nc4ccccc4nc23)cc1 | inactive: -5% | –
COc1ccc(C2=C(C)C(N3CCN(C(=O)c4ccco4)CC3)=NS2(=O)=O)cc1 | inactive: -4.58% | –
C#CC[N+](C)(C)CCCCCCCCCC | inactive: -8.5% | –
C#CCn1cccc(C(=O)Nc2ccc(OC)cc2)c1=O | – | inconclusive: 10 µM [inhibitor, partial curve, poor fit]
O=C(COc1ccccc1Cl)N1CCc2ccccc21 | inactive: -2.62% | –
Cc1[nH]c2c(Br)cccc2c1[C@H]1[C@@H](CC#N)C1(C)C | inactive: 5.7% | –
O=C1NC(=O)/C(=C\c2ccccc2OCc2cccc([N+](=O)[O-])c2)N1 | – | inconclusive: 31.6 µM [inhibitor, single point]
Cc1sc2ncnc(NCC(C)(C)N3CCOCC3)c2c1C | inactive: -12.6% | –
CCN(CC)CCCNC(=O)c1c(O)c2cc(F)cc3c2n(c1=O)C(C)CC3 (stereo not given) | – | inconclusive: 28.2 µM [inhibitor, single point]
COCCNC(=O)Cc1c(C)c2c(cc(C)c3c(C)coc32)oc1=O | inactive: 7.57% | –
Cn1c(=O)n(Cc2ccccc2Cl)c2ccccc21 | inactive: -0.415% | –
COC(=O)c1ccc(C(c2c(C)n(C)n(-c3ccccc3)c2=O)c2c(C)n(C)n(-c3ccccc3)c2=O)cc1 | inactive: -27.4% | –
C=CCOC(=O)c1[nH]c2c(c1C)C(=O)CC(c1cc(OC)c(OC)c(OC)c1)C2 (stereo not given) | – | inconclusive: 10 µM [inhibitor, partial curve]
CCOc1ccc(N(Cc2cc3ccc(C)cc3[nH]c2=O)S(=O)(=O)c2ccccc2)cc1 | – | inconclusive: 8.91 µM [inhibitor, partial curve]
CCn1c(/C=C/c2ccc(O)c(O)c2)nc2ccccc2c1=O | – | inconclusive: 8.91 µM [inhibitor, partial curve]
O=C(CC1OC(=O)c2ccccc21)Nc1ccc(Cl)c(S(=O)(=O)N2CCCCC2)c1 (stereo not given) | – | inconclusive: 5.01 µM [inhibitor, partial curve, poor fit]
O=C1C=CN2CCCCC2CC1 (stereo not given) | – | inconclusive: 31.6 µM [inhibitor, single point]
C[n+]1ccc(/C=N/Nc2nc(Cl)c(C#N)c(Cl)c2Cl)cc1 | – | inconclusive: 31.6 µM [inhibitor, single point]

Single entries from the results shown.
activity change, negative = inhibition, Cc1sc2ncnc(NCC(C)(C)N3CCOCC3)c2c1C reads inactive: -12.6%
activity change, negative = inhibition, Cc1cc(C(=O)OCC(=O)NNC(=O)c2cccs2)ccc1[N+](=O)[O-] reads inactive: -0.604%

(next part)

Structure (SMILES) | activity change, negative = inhibition | Potency
Cc1c(C(=O)NCCS(=O)(=O)N2CCN(c3ccccc3F)CC2)cccc1[N+](=O)[O-] | – | inconclusive: 12.6 µM [inhibitor, single point]
COc1ccc(NS(=O)(=O)c2cc(NC(=O)c3ccccc3)ccc2N2CCOCC2)cc1 | – | inconclusive: 11.2 µM [inhibitor, partial curve, poor fit]
CCN(CC)C(=O)[C@H]1C[C@H](CC(=O)NCc2cccc(C(F)(F)F)c2)C(=O)N2CCc3c([nH]c4cc(-c5ccco5)ccc34)[C@]12C | – | inconclusive: 28.2 µM [inhibitor, single point]
C/C(=N\NC(=O)c1cc2c(s1)CCC(C)C2)c1ccc[nH]1 (stereo not given) | – | inconclusive: 10 µM [inhibitor, partial curve, poor fit]
CC(C)(C)OC(=O)C[C@H]1C/C=C\C[C@H](CC(=O)NCCO)C(=O)N2CCC[C@@H]2COC1=O | inactive: 2.3% | –
Cc1cc(C)n(CCC(=O)N2CCCC(N3CCN(c4cccc(Cl)c4)CC3)C2)n1 (stereo not given) | – | inconclusive: 3.55 µM [inhibitor, full curve, poor fit]
CNS(=O)(=O)c1cccc(C(=O)OCc2cc(=O)oc3c(C)c(O)ccc23)c1 | inactive: -2.34% | –
CC(C)(C)c1ccc(C(=O)NCC(=O)N/N=C/c2cccs2)cc1 | inactive: 5.22% | –
NC(=S)Nc1ccc(F)c(F)c1F | inactive: -5.05% | –
O=C(O)CC(NC(=O)C12CC3CC(CC(C3)C1)C2)c1ccc(F)cc1 (stereo not given) | inactive: -0.571% | –
O=C(CCc1ccccc1)Nc1sc2c(c1C(=O)O)CCCC2 | – | inconclusive: 28.2 µM [inhibitor, single point]
Cc1ccc(NS(=O)(=O)c2ccc(-c3cnc(C4CC4)o3)cc2)c(C)c1 | – | inconclusive: 0.0708 µM [inhibitor, full curve, poor fit]
CCOC(=O)CSc1nnc(NC(=O)NC(C)C)s1 | – | inconclusive: 0.0089 µM [inhibitor, full curve, poor fit]
CCOc1cc(CNC2CCCC2)c(Cl)cc1OCC(=O)Nc1ccccc1 | – | inconclusive: 31.6 µM [inhibitor, single point]
CC[n+]1ccc(/C=C/c2ccc(N(C)C)cc2)c2ccccc21 | – | inconclusive: 2.51 µM [inhibitor, partial curve, poor fit]
COc1ccc(N(C(=O)CCl)C(C(=O)NCCc2ccccc2)c2cccs2)cc1Cl (stereo not given) | – | active: 3.98 µM
C[C@@H](c1ccccc1)N1C[C@H]2CCCN2c2cc(Br)ccc2S1(=O)=O | – | inconclusive: 10 µM [inhibitor, partial curve, poor fit]
CC1CCN(CC(=O)Nc2ccc(S(=O)(=O)N3CCCC(C)C3)cc2)CC1 (stereo not given) | – | inconclusive: 5.01 µM [inhibitor, partial curve]
O=C1OCCN1C(=O)[C@H]1[C@H](c2ccc([N+](=O)[O-])cc2)C(c2ccc(F)cc2)=NN1c1ccc(Br)cc1 | inactive: -8.08% | –
Cc1c(C(=O)Nc2ccncc2)sc2nc(-c3ccccc3)cn12 | – | inconclusive: 8.91 µM [inhibitor, single point]
C=CCn1cc(/C=C/c2cc[n+](C)cc2)c2ccccc21 | – | active: 10 µM
COc1cccc(CC2(CO)CCCN(Cc3ccc(OC)c(C)c3OC)C2)c1 (stereo not given) | – | inconclusive: 10 µM [inhibitor, partial curve, poor fit]

Whole records, looked up by structure. Values in the order: activity change, negative = inhibition	Potency
COCCNC(=O)Cc1c(C)c2c(cc(C)c3c(C)coc32)oc1=O as listed: inactive: 7.57%	–
CC(C)(C)c1ccc(C(=O)NCC(=O)N/N=C/c2cccs2)cc1 as listed: inactive: 5.22%	–
